Experimental findings from US20250283871A1, “COMPOSITIONS AND METHODS FOR MODULATING THE INTERACTION BETWEEN SS18-SSX FUSION ONCOPROTEIN AND NUCLEOSOMES” (Dana-Farber Cancer Institute, Inc., priority 2020, published 2025) are described below.

The data set concerns BAF complex subunits and histone proteins. The experiment in a line: Mass spectrometry proteomics of purified HA-SS18 WT and HA-SS18-SSX1 complexes (Tables 5A-5E). Set-up: species or system human. To be noted: HEK-293T; for Total (total peptides) / Unique (unique peptides): HA-SS18WT_CHR_peptides: protein identified in HA-SS18 WT BAF complex purification from nuclease-treated solubilized chromatin (CHR); for Total (peptides) / Unique (peptides): HA-SS18WT_NE_peptides: proteins co-purified with HA-SS18 WT from nuclear extract (NE).

B1: CECR2 (protein, UniProt Q9BXF3 1-1484, looked up)
Chromatin remodeling …: MCPEEGGAAGLGELRSWWEVPAIAHFCSLFRTAFRLPDFEIEELEAALHRDDVEFISDLIACLLQGCYQRRDITPQTFHSYLEDIINYRWELEEGKPNPLREASFQDLPLRTRVEILHRLCDYRLDADDVFDLLKGLDADSLRVEPLGEDNSGALYWYFYGTRMYKEDPVQGKSNGELSLSRESEGQKNVSSIPGKTGKRRGRPPKRKKLQEEILLSEKQEENSLASEPQTRHGSQGPGQGTWWLLCQTEEEWRQVTESFRERTSLRERQLYKLLSEDFLPEICNMIAQKGKRPQRTKAELHPRWMSDHLSIKPVKQEETPVLTRIEKQKRKEEEEERQILLAVQKKEQEQMLKEERKRELEEKVKAVEGMCSVRVVWRGACLSTSRPVDRAKRRKLREERAWLLAQGKELPPELSHLDPNSPMREEKKTKDLFELDDDFTAMYKVLDVVKAHKDSWPFLEPVDESYAPNYYQIIKAPMDISSMEKKLNGGLYCTKEEFVNDMKTMFRNCRKYNGESSEYTKMSDNLERCFHRAMMKHFPGEDGDTDEEFWIREDEKREKRRSRAGRSGGSHVWTRSRDPEGSSRKQQPMENGGKSLPPTRRAPSSGDDQSSSSTQPPREVGTSNGRGFSHPLHCGGTPSQAPFLNQMRPAVPGTFGPLRGSDPATLYGSSGVPEPHPGEPVQQRQPFTMQPPVGINSLRGPRLGTPEEKQMCGGLTHLSNMGPHPGSLQLGQISGPSQDGSMYAPAQFQPGFIPPRHGGAPARPPDFPESSEIPPSHMYRSYKYLNRVHSAVWNGNHGATNQGPLGPDEKPHLGPGPSHQPRTLGHVMDSRVMRPPVPPNQWTEQSGFLPHGVPSSGYMRPPCKSAGHRLQPPPVPAPSSLFGAPAQALRGVQGGDSMMDSPEMIAMQQLSSRVCPPGVPYHPHQPAHPRLPGPFPQVAHPMSVTVSAPKPALGNPGRAPENSEAQEPENDQAEPLPGLEEKPPGVGTSEGVYLTQLPHPTPPLQTDCTRQSSPQERETVGPELKSSSSESADNCKAMKGKNPWPSDSSYPGPAAQGCVRDLSTVADRGALSENGVIGEASPCGSEGKGLGSSGSEKLLCPRGRTLQETMPCTGQNAATPPSTDPGLTGGTVSQFPPLYMPGLEYPNSAAHYHISPGLQGVGPVMGGKSPASHPQHFPPRGFQSNHPHSGGFPRYRPPQGMRYSYHPPPQPSYHHYQRTPYYACPQSFSDWQRPLHPQGSPSGPPASQPPPPRSLFSDKNAMASLQGCETLNAALTSPTRMDAVAAKVPNDGQNPGPEEEKLDESMERPESPKEFLDLDNHNAATKRQSSLSASEYLYGTPPPLSSGMGFGSSAFPPHSVMLQTGPPYTPQRPASHFQPRAYSSPVAALPPHHPGATQPNGLSQEGPIYRCQEEGLGHFQAVMMEQIGTRSGIRGPFQEMYRPSGMQMHPVQSQASFPKTPTAATSQEEVPPHKPPTLPLDQS
Consider B1, for which the “Total (total peptides)” value is on record as 1 and the “Unique (unique peptides)” value is 1.

B2: SSR3 (protein, UniProt Q9UNL2 1-185, looked up)
Translocon-associated protein …: MAPKGSSKQQSEEDLLLQDFSRNLSAKSSALFFGNAFIVSAIPIWLYWRIWHMDLIQSAVLYSVMTLVSTYLVAFAYKNVKFVLKHKVAQKREDAVSKEVTRKLSEADNRKMSRKEKDERILWKKNEVADYEATTFSIFYNNTLFLVVVIVASFFILKNFNPTVNYILSISASSGLIALLSTGSK
As to B2, the “Total (total peptides)” value stood at 1, the “Unique (unique peptides)” value turned out to be 1, the “Total (peptides)” value is given as 1 and the “Unique (peptides)” value stood at 1.

B3: IGHA1 (protein, UniProt P01876 1-398, looked up)
Immunoglobulin heavy constant …: ASPTSPKVFPLSLCSTQPDGNVVIACLVQGFFPQEPLSVTWSESGQGVTARNFPPSQDASGDLYTTSSQLTLPATQCLAGKSVTCHVKHYTNPSQDVTVPCPVPSTPPTPSPSTPPTPSPSCCHPRLSLHRPALEDLLLGSEANLTCTLTGLRDASGVTFTWTPSSGKSAVQGPPERDLCGCYSVSSVLPGCAEPWNHGKTFTCTAAYPESKTPLTATLSKSGNTFRPEVHLLPPPSEELALNELVTLTCLARGFSPKDVLVRWLQGSQELPREKYLTWASRQEPSQGTTTFAVTSILRVAAEDWKKGDTFSCMVGHEALPLAFTQKTIDRLADWQMPPPYVVLDLPQETLEEETPGANLWPTTITFLTLFLLSLFYSTALTVTSVRGPSGNREGPQY
Consider B3, for which the “Total (total peptides)” value is listed as 1 and the “Unique (unique peptides)” value is recorded as 1.

B4: LUC7L3 (protein, UniProt O95232 1-432, looked up)
Luc7-like protein 3: MISAAQLLDELMGRDRNLAPDEKRSNVRWDHESVCKYYLCGFCPAELFTNTRSDLGPCEKIHDENLRKQYEKSSRFMKVGYERDFLRYLQSLLAEVERRIRRGHARLALSQNQQSSGAAGPTGKNEEKIQVLTDKIDVLLQQIEELGSEGKVEEAQGMMKLVEQLKEERELLRSTTSTIESFAAQEKQMEVCEVCGAFLIVGDAQSRVDDHLMGKQHMGYAKIKATVEELKEKLRKRTEEPDRDERLKKEKQEREEREKEREREREERERKRRREEEEREKERARDRERRKRSRSRSRHSSRTSDRRCSRSRDHKRSRSRERRRSRSRDRRRSRSHDRSERKHRSRSRDRRRSKSRDRKSYKHRSKSRDREQDRKSKEKEKRGSDDKKSSVKSGSREKQSEDTNTESKESDTKNEVNGTSEDIKSEGDTQSN
As to B4, the “Total (total peptides)” value is reported as 1 and the “Unique (unique peptides)” value is 1.

B5: GNAT3 (protein, UniProt A8MTJ3 2-354, looked up)
Guanine nucleotide-binding …: GSGISSESKESAKRSKELEKKLQEDAERDARTVKLLLLGAGESGKSTIVKQMKIIHKNGYSEQECMEFKAVIYSNTLQSILAIVKAMTTLGIDYVNPRSAEDQRQLYAMANTLEDGGMTPQLAEVIKRLWRDPGIQACFERASEYQLNDSAAYYLNDLDRITASGYVPNEQDVLHSRVKTTGIIETQFSFKDLHFRMFDVGGQRSERKKWIHCFEGVTCIIFCAALSAYDMVLVEDEEVNRMHESLHLFNSICNHKYFSTTSIVLFLNKKDIFQEKVTKVHLSICFPEYTGPNTFEDAGNYIKNQFLDLNLKKEDKEIYSHMTCATDTQNVKFVFDAVTDIIIKENLKDCGLF
Regarding B5, the “Total (total peptides)” value is recorded as 1 and the “Unique (unique peptides)” value came to 1.

B6: EWSR1 (protein, UniProt Q01844 1-656, looked up)
RNA-binding protein EWS: MASTDYSTYSQAAAQQGYSAYTAQPTQGYAQTTQAYGQQSYGTYGQPTDVSYTQAQTTATYGQTAYATSYGQPPTGYTTPTAPQAYSQPVQGYGTGAYDTTTATVTTTQASYAAQSAYGTQPAYPAYGQQPAATAPTRPQDGNKPTETSQPQSSTGGYNQPSLGYGQSNYSYPQVPGSYPMQPVTAPPSYPPTSYSSTQPTSYDQSSYSQQNTYGQPSSYGQQSSYGQQSSYGQQPPTSYPPQTGSYSQAPSQYSQQSSSYGQQSSFRQDHPSSMGVYGQESGGFSGPGENRSMSGPDNRGRGRGGFDRGGMSRGGRGGGRGGMGSAGERGGFNKPGGPMDEGPDLDLGPPVDPDEDSDNSAIYVQGLNDSVTLDDLADFFKQCGVVKMNKRTGQPMIHIYLDKETGKPKGDATVSYEDPPTAKAAVEWFDGKDFQGSKLKVSLARKKPPMNSMRGGLPPREGRGMPPPLRGGPGGPGGPGGPMGRMGGRGGDRGGFPPRGPRGSRGNPSGGGNVQHRAGDWQCPNPGCGNQNFAWRTECNQCKAPKPEGFLPPPFPPPGGDRGRGGPGGMRGGRGGLMDRGGPGGMFRGGRGGDRGGFRGGRGMDRGGFGGGRRGGPGGPPGPLMEQMGGRRGGRGGPGKMDKGEHRQERRDRPY
For the molecule B6, the “Total (total peptides)” value came out at 1, the “Unique (unique peptides)” value is reported as 1, the “Total (peptides)” value is 2 and the “Unique (peptides)” value came out at 1.
